Assay results: paper PMC9785946 (Pharmaceutics, 2022)

Assay: general procedure: Fmoc solid-phase peptide synthesis; Rink Amide resin; HATU, HBTU
Settings: for isolated yield: whole synthesis

| Substance | isolated yield (overall yield over two steps, scale 7.2 µmol) [%] | conjugation yield (conjugation step) [%] | isolated yield [%] |
| --- | --- | --- | --- |
| AR-Pip-NH2 | 32 |  |  |
| AR-Pip-TCO |  | 34 | 13 |
